Laboratory results reported in patent EP4458977A1 (Max-Planck-Gesellschaft zur Förderung der Wissenschaften …, priority 2023, dated 2024).
Several values for one entry are separate records, joined by “and”; a condition that tells them apart may be missing. Equal entries are not always repeated. Some compounds share one wording; it may come from a single statement. For some of these results: Some peptides are written in HELM: one residue between dots, names in brackets for other building blocks, links after the first $. Where a SMILES comes first, the peptide text is derived from it. The star is where a group is joined. Palmitoyl = CCCCCCCCCCCCCCCC(=O)*

How the values were obtained:
[1] = general procedure: Fmoc solid-phase peptide synthesis; Rink Amide AM resin LL (100-200 mesh); OxymaPure, HBTU, N,N'-diisopropylcarbodiimide, DIPEA (listed in materials); conditions: whole synthesis
[2] = peptide made by a vendor (peptide synthesis; Rink Amide AM resin LL (100-200 mesh); OxymaPure, HBTU, N,N'-diisopropylcarbodiimide, DIPEA (listed in materials)); conditions: whole synthesis, LC-MS or HPLC
[3] = test system: HeLa cells; assay: Confocal laser scanning microscopy and degradation study with PA library and HeLa cells; type: cell-based; conditions: for Aggregate size after 30 min incubation (d0) / Aggregate size after 3 d incubation (d3): aggregates > 10 µm^2, HeLa cell culture
Description: In general, the procedure for determine whether a PA is degraded or not, is conducted by confocal laser scanning microscopy of Proteostat stained PAs which are added to Hela cells (2 µg peptide added to 20.000 cells). Microscopy is conducted at day 0 (d0, after 30 min of incubation) and at day 3 (d3, after 72 h of incubation). The number of aggregates >10 µm^2 is counted via 3D object counter in imaged in an area of 1008 µm × 1008 µm.
A PA is considered to be degradable if the number and the size of aggregates are reduced after 3 days. The efficiency is determined by the percentual degradation (aggregate number at d3 / aggregate number at d0). For the number of aggregation three technical replicates were evaluated for each sample. A large deviation represents a nonhomogeneous spatial distribution of aggregates.
Confocal laser scanning microscopy and degradation study with PA library and HeLa cells: Confocal laser scanning microscopy studies were performed for the visualization of the cell-PA interaction. HeLa cells were seeded one day prior to conducting the assay (20,000/well) in an 8-well IBIDI slide. […] The nucleus of the HeLa cells was stained with Hoechst 33342 (NucBlue™, Thermo Fisher Scientific). The peptide solution mixture was transferred to the HeLa cells and incubated for 30 min at 37°C before washing three times with PBS. […] For the evaluation of aggregate degradation, the samples were further incubated at 37°C for 3 d and analyzed without any additional washing step. […] The number of aggregates were determined by counting aggregates larger than the threshold 10 µm^2 in an area of 1008 × 1008 µm and repeated in three technical triplicates.

PEPTIDE1{[cap].V.V.V.A.A.A.E.E.E.[am]}$$$$V2.0
crude yield [1]: 46%

PEPTIDE1{Q.C.K.I.K.Q.I.I.N.M.W.Q}$$$$V2.0
purity (crude or final not stated) [2]: >95%

PEPTIDE1{[cap].V.V.V.A.A.A.K.K.K.[am]}$$$$V2.0
crude yield [1]: 34%

PEPTIDE1{[cap].F.Q.F.K.F.K.C.[am]}$$$$V2.0
crude yield [1]: 25%

CCCCCCCCCCCCCCCC(=O)N[C@@H](C)C(=O)N[C@@H](CCC(N)=O)C(=O)N[C@@H](C)C(=O)N[C@@H](CCCCN)C(=O)N[C@@H](C)C(=O)N[C@@H](CCCCN)C(N)=O [Pat16, C16-AQAKAK-NH2] (Palmitoyl-AQAKAK-NH2)
formation of µm-sized PA clusters (Proteostat stained, with HeLa cells) [3]: formation of µm-sized PA clusters | Aggregate size after 30 min incubation (d0) [3]: 25 µm^2 | Aggregate size after 3 d incubation (d3) [3]: 28 µm^2

CCCCCCCCCCCCCCCC(=O)N[C@@H](C)C(=O)N[C@H](C(=O)N[C@@H](C)C(=O)N[C@@H](CCCCN)C(=O)N[C@@H](CCCCN)C(=O)N[C@@H](CCCCN)C(N)=O)C(C)C [Pat21, C16-AVAKKK-NH2] (Palmitoyl-AVAKKK-NH2)
Aggregate size after 30 min incubation (d0) [3]: 39 µm^2 | Aggregate size after 3 d incubation (d3) [3]: 47 µm^2

CCCCCCCCCCCCCCCC(=O)N[C@H](C(=O)N[C@H](C(=O)N[C@@H](CCC(N)=O)C(=O)N[C@@H](CCCCN)C(=O)N[C@H](C(=O)N[C@@H](CCCCN)C(N)=O)[C@@H](C)CC)[C@@H](C)CC)[C@@H](C)CC [Pat15, C16-IIQKIK-NH2] (Palmitoyl-IIQKIK-NH2)
formation of µm-sized PA clusters (Proteostat stained, with HeLa cells) [3]: formation of µm-sized PA clusters | Aggregate size after 30 min incubation (d0) [3]: 41 µm^2 | Aggregate size after 3 d incubation (d3) [3]: 23 µm^2

CCCCCCCCCCCCCCCC(=O)N[C@H](C(=O)N[C@H](C(=O)N[C@H](C(=O)N[C@@H](C)C(=O)N[C@@H](C)C(=O)N[C@@H](C)C(=O)N[C@@H](CCCCN)C(=O)N[C@@H](CCCCN)C(=O)N[C@@H](CCCCN)C(N)=O)C(C)C)C(C)C)C(C)C [PA1] (Palmitoyl-VVVAAAKKK-NH2)
Aggregate size after 30 min incubation (d0) [3]: 28 µm^2 and 36 µm^2
